No constants are given. Whether binding was seen depends on the method and setting. Binding seen in cells or lysates may run through a third protein. Some entries that bind do so weakly or less than the wild type. Sequences can lack the tags named with a protein.

Protein sequences, listed by entry. Tags and fused reporters are not part of them. Residues count along the entry.
UniProt P04114, residues 28-4563: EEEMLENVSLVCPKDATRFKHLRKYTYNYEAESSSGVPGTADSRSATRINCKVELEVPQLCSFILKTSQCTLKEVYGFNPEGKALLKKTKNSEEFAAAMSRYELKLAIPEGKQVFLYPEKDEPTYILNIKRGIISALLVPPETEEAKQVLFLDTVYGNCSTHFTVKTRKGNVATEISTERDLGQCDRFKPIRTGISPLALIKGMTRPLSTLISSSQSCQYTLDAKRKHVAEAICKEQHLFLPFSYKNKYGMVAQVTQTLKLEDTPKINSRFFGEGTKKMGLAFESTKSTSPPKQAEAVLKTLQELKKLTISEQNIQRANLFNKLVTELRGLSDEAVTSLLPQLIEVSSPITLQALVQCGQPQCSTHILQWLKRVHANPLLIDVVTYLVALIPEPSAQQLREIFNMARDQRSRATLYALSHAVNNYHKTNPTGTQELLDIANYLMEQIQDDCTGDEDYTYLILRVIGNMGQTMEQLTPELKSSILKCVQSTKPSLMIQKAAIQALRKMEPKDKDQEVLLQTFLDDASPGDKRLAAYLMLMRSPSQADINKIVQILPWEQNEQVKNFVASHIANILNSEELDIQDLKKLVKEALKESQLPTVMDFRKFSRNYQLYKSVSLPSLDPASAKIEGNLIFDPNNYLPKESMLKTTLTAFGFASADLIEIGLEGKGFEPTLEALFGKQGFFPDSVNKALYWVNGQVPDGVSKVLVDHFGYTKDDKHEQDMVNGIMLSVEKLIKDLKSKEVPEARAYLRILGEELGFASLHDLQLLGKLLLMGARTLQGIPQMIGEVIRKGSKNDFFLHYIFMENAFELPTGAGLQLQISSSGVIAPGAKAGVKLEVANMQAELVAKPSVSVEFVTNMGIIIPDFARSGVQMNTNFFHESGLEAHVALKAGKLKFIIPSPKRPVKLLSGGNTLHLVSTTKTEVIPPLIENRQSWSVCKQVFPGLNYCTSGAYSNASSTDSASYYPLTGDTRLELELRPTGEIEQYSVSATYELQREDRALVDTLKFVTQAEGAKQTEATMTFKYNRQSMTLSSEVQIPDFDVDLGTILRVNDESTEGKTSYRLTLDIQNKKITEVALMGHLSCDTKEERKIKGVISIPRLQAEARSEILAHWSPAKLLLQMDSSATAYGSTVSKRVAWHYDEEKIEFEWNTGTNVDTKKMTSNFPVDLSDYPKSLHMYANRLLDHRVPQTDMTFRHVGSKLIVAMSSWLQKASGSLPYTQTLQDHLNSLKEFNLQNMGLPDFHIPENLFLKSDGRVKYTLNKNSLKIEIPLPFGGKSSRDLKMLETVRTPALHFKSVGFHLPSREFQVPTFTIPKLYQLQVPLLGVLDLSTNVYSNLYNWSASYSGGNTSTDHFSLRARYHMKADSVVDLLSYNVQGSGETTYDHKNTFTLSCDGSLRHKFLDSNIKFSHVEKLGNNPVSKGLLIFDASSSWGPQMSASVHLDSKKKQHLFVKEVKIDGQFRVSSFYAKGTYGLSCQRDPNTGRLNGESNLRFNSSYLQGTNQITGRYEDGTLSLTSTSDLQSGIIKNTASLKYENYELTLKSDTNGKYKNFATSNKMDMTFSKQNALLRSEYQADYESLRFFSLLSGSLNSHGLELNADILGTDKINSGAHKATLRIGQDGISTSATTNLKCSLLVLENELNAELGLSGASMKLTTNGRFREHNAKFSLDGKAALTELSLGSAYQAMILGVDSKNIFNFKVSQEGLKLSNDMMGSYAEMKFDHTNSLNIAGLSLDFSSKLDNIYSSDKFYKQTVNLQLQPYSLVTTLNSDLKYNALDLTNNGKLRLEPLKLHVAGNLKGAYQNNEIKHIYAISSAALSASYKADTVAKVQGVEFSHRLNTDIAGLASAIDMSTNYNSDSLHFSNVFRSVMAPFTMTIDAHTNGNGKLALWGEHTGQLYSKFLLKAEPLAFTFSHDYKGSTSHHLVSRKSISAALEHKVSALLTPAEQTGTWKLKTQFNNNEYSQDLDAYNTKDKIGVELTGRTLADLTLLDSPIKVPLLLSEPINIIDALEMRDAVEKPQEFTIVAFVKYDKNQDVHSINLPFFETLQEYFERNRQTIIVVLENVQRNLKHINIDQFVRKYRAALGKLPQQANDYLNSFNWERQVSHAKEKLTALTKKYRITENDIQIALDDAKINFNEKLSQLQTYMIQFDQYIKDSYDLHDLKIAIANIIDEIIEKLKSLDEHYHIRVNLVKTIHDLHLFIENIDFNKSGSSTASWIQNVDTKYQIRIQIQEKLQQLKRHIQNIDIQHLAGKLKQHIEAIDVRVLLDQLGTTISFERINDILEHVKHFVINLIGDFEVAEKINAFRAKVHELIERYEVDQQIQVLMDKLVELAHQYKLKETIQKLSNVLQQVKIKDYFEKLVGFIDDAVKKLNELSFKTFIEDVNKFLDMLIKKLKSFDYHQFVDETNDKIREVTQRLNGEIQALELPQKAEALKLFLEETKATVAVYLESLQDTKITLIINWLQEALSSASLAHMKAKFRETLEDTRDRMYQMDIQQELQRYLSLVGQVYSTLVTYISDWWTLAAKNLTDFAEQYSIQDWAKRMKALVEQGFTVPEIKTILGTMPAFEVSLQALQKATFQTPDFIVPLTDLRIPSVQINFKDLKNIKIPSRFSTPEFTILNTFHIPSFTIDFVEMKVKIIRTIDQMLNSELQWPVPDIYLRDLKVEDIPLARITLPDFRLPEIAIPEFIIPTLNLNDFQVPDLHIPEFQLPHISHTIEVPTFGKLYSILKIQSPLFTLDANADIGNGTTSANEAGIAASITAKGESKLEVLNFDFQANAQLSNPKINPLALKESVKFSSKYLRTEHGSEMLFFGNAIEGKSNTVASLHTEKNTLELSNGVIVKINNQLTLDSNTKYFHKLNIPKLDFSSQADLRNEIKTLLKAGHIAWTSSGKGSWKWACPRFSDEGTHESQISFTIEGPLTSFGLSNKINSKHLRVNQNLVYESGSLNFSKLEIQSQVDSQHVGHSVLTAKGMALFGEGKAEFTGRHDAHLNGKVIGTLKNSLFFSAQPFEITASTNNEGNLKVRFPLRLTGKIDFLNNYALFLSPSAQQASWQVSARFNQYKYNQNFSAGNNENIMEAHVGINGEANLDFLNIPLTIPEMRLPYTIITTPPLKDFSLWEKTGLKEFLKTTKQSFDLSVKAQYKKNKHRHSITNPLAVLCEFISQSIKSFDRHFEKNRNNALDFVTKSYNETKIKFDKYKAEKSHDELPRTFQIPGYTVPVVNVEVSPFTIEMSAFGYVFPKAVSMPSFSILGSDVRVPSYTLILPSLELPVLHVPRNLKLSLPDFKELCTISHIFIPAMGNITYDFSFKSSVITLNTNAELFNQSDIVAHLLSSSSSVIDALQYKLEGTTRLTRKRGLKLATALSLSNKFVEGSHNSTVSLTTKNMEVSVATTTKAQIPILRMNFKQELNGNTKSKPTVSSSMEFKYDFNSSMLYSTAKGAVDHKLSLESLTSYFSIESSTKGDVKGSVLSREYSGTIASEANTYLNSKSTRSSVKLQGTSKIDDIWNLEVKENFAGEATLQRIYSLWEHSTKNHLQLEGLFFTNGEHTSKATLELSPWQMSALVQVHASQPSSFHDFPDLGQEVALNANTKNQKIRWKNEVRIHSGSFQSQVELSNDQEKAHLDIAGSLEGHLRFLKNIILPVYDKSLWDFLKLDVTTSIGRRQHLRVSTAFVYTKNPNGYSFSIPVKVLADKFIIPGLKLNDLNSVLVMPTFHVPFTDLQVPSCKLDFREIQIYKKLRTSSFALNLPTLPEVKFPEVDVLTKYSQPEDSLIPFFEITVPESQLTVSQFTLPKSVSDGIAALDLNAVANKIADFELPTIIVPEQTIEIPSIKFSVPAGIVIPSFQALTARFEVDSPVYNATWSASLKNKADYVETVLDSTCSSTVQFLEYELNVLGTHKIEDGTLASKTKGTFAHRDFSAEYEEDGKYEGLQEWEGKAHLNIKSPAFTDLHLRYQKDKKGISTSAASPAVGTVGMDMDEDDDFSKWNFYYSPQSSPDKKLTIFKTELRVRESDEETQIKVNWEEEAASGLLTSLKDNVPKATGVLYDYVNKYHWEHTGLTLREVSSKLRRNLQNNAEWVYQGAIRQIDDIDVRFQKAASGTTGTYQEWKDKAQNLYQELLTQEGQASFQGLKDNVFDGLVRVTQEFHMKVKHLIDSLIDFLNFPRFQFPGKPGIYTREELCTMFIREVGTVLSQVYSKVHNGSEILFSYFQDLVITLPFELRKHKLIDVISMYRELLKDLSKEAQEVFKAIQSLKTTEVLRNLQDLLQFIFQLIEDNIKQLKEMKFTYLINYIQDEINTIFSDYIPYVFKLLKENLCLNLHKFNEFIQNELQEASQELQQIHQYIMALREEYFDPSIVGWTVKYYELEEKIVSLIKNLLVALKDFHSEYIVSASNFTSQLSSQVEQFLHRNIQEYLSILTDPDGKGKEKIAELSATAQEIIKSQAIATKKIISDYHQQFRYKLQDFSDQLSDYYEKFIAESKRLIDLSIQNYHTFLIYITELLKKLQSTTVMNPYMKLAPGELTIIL
UniProt Q9UKV5: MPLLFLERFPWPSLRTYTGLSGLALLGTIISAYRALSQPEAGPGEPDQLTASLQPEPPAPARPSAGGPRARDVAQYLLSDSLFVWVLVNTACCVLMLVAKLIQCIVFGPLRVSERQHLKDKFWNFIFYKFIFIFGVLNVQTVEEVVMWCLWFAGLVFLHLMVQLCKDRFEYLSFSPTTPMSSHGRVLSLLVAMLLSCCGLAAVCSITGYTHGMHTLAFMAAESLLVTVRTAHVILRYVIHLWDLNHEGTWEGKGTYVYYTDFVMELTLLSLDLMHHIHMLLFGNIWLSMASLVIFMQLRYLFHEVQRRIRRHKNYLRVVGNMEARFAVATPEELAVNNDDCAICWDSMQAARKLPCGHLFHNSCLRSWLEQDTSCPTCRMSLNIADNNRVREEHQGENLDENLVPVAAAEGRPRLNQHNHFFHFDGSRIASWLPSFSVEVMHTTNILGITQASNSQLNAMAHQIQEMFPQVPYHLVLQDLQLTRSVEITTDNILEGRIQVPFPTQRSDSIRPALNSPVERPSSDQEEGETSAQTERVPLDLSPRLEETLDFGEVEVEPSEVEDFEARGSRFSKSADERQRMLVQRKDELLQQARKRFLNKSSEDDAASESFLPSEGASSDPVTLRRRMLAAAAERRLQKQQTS

For assay [1], the target named is apolipoprotein B (apoB), endogenous, mouse hepatocytes or liver (mouse (endogenous in mouse hepatocytes)) (UniProt E9Q414). The assay is described as follows: co-IP; reciprocal co-immunoprecipitation of ectopic LZP and apoB in mouse hepatocytes and in HepG2 cells overexpressing LZP.
In assay [2] the target is apolipoprotein B (apoB), endogenous, HepG2 cells (human (endogenous in HepG2)) (UniProt P04114). The description is as above.
Assay [3] deals with AMFR (E3 ligase gp78), ectopic, in HepG2 cells (UniProt Q9UKV5). As to the kind of experiment: co-IP; reciprocal co-immunoprecipitation with indicated antibodies in HepG2 cells ectopically expressing AMFR and LZP.
Assay [4] deals with T1, liver-specific zona pellucida domain-containing protein (LZP), endogenous, mouse hepatocytes (mouse (endogenous in mouse hepatocytes)) (UniProt Q8R4V5).
T1 sequence: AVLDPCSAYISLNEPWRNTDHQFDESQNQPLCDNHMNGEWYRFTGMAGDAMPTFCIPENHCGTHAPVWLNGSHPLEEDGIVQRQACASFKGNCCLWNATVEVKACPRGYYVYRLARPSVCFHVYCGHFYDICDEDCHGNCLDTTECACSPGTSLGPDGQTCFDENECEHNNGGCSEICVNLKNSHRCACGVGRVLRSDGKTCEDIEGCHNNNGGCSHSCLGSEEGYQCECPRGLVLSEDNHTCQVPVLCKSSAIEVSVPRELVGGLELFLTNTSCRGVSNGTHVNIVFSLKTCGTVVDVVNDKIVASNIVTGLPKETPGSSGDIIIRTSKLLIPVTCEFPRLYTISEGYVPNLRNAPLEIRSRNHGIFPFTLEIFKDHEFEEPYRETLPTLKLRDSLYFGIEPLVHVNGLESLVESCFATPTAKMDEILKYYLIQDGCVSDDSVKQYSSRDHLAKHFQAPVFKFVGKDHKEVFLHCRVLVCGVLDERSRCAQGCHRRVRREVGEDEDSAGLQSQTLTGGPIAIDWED
The assay is described as follows: co-IP; co-immunoprecipitation of LZP with apoB, MTTP or BIP in hepatocytes isolated from WT mice.

B1: liver-specific zona pellucida domain-containing protein (LZP), ectopic, in mouse hepatocytes (protein, UniProt Q8R4V5 20-546)
chain: T1 sequence
Consider B1, for which the binding entry in assay [1] is given as “binds”.

B2: liver-specific zona pellucida domain-containing protein (LZP), ectopic, in HepG2 cells (protein, UniProt Q8WWZ8 23-545)
chain: DPCSAYISLNEPWRNTDHQLDESQGPPLCDNHVNGEWYHFTGMAGDAMPTFCIPENHCGTHAPVWLNGSHPLEGDGIVQRQACASFNGNCCLWNTTVEVKACPGGYYVYRLTKPSVCFHVYCGHFYDICDEDCHGSCSDTSECTCAPGTVLGPDRQTCFDENECEQNNGGCSEICVNLKNSYRCECGVGRVLRSDGKTCEDVEGCHNNNGGCSHSCLGSEKGYQCECPRGLVLSEDNHTCQVPVLCKSNAIEVNIPRELVGGLELFLTNTSCRGVSNGTHVNILFSLKTCGTVVDVVNDKIVASNLVTGLPKQTPGSSGDFIIRTSKLLIPVTCEFPRLYTISEGYVPNLRNSPLEIMSRNHGIFPFTLEIFKDNEFEEPYREALPTLKLRDSLYFGIEPVVHVSGLESLVESCFATPTSKIDEVLKYYLIRDGCVSDDSVKQYTSRDHLAKHFQVPVFKFVGKDHKEVFLHCRVLVCGVLDERSRCAQGCHRRMRRGAGGEDSAGLQGQTLTGGPIRIDWED
For B2, the binding result in assay [2] and in assay [3] was “binds” each time.

B3: microsomal triglyceride transfer protein (MTTP), mouse hepatocytes (protein, UniProt O08601 22-894)
chain: HTTGLSLNNERLYKLTYSTEVFLDGGKGKPQDSVGYKISSDVDVVLLWRNPDGDDDQVIQVTITAVNVENAGQQRGEKSIFQGKSTPKIIGKDNLEALQRPMLLHLVRGKVKEFYSYENEPVGIENLKRGLASLFQMQLSSGTTNEVDISGDCKVTYQAQQDKVVKIKALDTCKIERSGFTTANQVLGVSSKATSVTTYKIEDSFVTAVLAEETRAFALNFQQTIAGKIVSKQKLELKTTEAGPRMIPGKQVAGVIKAVDSKYKAIPIVGQVLERVCKGCPSLAEHWKSIRKNLEPENLSKAEAVQSFLAFIQHLRTSRREEILQILKAEKKEVLPQLVDAVTSAQTPDSLEAILDFLDFKSDSSIILQERFLYACGFATHPDEELLRALLSKFKGSFASNDIRESVMIIIGALVRKLCQNEGCKLKAVVEAKKLILGGLEKPEKKEDTTMYLLALKNALLPEGIPLLLKYAEAGEGPVSHLATTVLQRYDVSFITDEVKKTLNRIYHQNRKVHEKTVRTTAAAVILKNPSYMDVKNILLSIGELPKEMNKYMLTVVQDILHFEMPASKMIRRVLKEMAVHNYDRFSKSGSSSAYTGYVERSPRAASTYSLDILYSGSGILRRSNLNIFQYIGKAELHGSQVVIEAQGLEGLIAATPDEGEENLDSYAGMSAILFDVQLRPVTFFNGYSDLMSKMLSASGDPVSVVKGLILLIDHSQDIQLQSGLKANMEIQGGLAIDISGSMEFSLWYRESKTRVKNRVAVVITSDVTVDASFVKAGVESRAETEAGLEFISTVQFSQYPFLVCMQMDKAEAPLRQFETKYERLSTGRGYVSRRRKESLVAGCELPLHQENSEMCNVVFPPQPESDNSGGWF
Turning to B3, the binding result in assay [4] was “binds”.
